From patent EP2664619B1, “Purine derivatives as tools for screening anti-Alzheimer compounds” (Manros Therapeutics, priority 2012, dated 2013) come the findings set out here.

This series deals with Aβ42 production. The series is described as follows: Sandwich ELISA measurement of Aβ42 levels in supernatant of treated N2a-APP695 cells. It is filed as cell-based, Mouse. Here is the method: Mouse neuroblastoma cells (N2a cells) or N2a-APP695 cells (N2a cell line stably transfected with APP695, an amyloid precursor protein) were cultured in an essential medium composed of Dulbecco's minimal essential medium (DMEM) and of OptiMEM® (1:1, v/v) (Gibco®) containing 0.2 mg/mL Geniticin (Geneticin® Selective Antibiotic, Gibco®) and 5 % fetal bovine serum (FBS, Gibco®, EU approved origin) in a humidified, 5% CO2 incubator at 37°C. Routinely, cells were split without use of Trypsin every 4/5 days. They were first rinsed with PBS (Gibco) and detached from the plate bottom using 4 mL Versene (Gibco) at room temperature for 3-4 min. […]
The N2a-APP695 cells were seeded at 10.000 cells/well in a 96 well plate with modified media (0.5% FBS) and incubated overnight. Cells were treated with fresh media comprising different compounds according to the invention (equal quantity of DMSO sold by Sigma®). […]
Then, Aβ38, Aβ40 and Aβ42 levels were measured in a sandwich ELISA (Enzyme-Linked ImmunoSorbent Assay) using a combination of monoclonal antibody 6E10 (mAb 6E10) (sold by Covance® under the reference SIG-39320) and biotinylated polyclonal Aβ38, Aβ40 or Aβ42 antibodies (provided by Dr. P.D. Mehta, IBR, Staten Island, USA). […]
The optical density was finally measured at 490 nm in a microELISA reader (sold by BioTek Instrument, reference E1 800, Gen 5 software). […]

Each structure is given as a SMILES string.

Turning to `CC[C@H](CO)Nc1nc(N(C)c2ccccc2)c2ncn(C(C)C)c2n1` [Aftin-5, (2R)-2-[[9-isopropyl-6-(N-methylanilino)purin-2-yl]amino]butan-1-ol], where the note is “100 µM, even after 48 hours”, the “Aβ42 production after plateau” value is “remained stable”. In addition, the “time at which Aβ42 production reached a plateau” value (after 100 µM addition, time-course, Figure 2) is listed as “about 12 hours”.
